Reference: patent US4207308A, “Process for purifying iodinated bile acid conjugates” (priority 1977, dated 1980)
“And” between values parts separate entries of the source, which are not always exact repeats. Identical values can stand only once.

Test: Recovery of cholylglycine added to serum (RIA validation)
Design: species or system patients
Settings: cholylglycine added to three sera (two normal, one elevated), cholylglycine standard curve

Which Recovery does the source give for `C[C@H](CCC(=O)NCC(=O)O)[C@H]1CC[C@H]2[C@@H]3[C@H](O)C[C@@H]4C[C@H](O)CC[C@]4(C)[C@H]3C[C@H](O)[C@]12C` [Cholylglycine] here?
Its Recovery is 120% and 123% and 133%.
